Some of the results follow.

By UniProt entry, the sequences of proteins in these tests, tags left out.
UniProt Q0JBA9, entry or part of it: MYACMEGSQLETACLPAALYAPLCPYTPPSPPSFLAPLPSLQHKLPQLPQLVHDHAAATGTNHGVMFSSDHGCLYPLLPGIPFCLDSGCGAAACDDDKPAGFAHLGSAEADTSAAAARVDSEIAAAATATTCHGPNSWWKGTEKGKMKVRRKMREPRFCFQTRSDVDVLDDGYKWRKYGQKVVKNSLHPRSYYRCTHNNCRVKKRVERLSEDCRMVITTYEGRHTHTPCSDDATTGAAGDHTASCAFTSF

For the assay, the target named is OsWRKY34 (Oryza sativa, UniProt Q0JBA9 1-250). Kind of assay: protein-binding microarray (RPBM); PBS, 2% BSA, 51.3 ng/ul salmon testes DNA, 50 uM zinc acetate, 200 nM TF, 25 C, 1 h; high values mean tight binding. To be noted: protein: recombinant; tags: N-terminal polyhistidine and DsRed monomer fusion (pET32a); label: CyDye5-dUTP incorporated in the synthesized complementary strand; 3' TTTTT single-stranded linker to array surface; dsDNA, one strand shown. The method in brief: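 Per-feature fluorescence intensity (arbitrary units), read on an Axon 4000B scanner, is the binding signal. Transcription factors carrying an N-terminal polyhistidine tag and DsRed fusion were expressed in E. coli BL21-CodonPlus and purified on Ni–NTA. A custom Agilent array, made double-stranded by primer extension with Cy5-dUTP and blocked with 2% BSA, was incubated with 200 nM protein in PBS, 2% BSA, salmon testes DNA and 50 µM zinc acetate at 25 °C for 1 h and then washed.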
Turning to “CCCTCCCACGGCTGGATCCAGCTCCGCCGCCGCTGTATCTCGGAGTCACCTAGTGCAG”, the binding signal was 8570 fluorescence intensity (a.u.). Take “GCCGCCGCCGCCGCTTCATCCCGACGCCGAAAGCCCGAAACGGAGTCACCTAGTGCAG”: the binding signal was 8830 fluorescence intensity (a.u.). The value for “TCCTCGCAATTCTAATCTCGGCCATATATATTGCTGCTTGCGGAGTCACCTAGTGCAG” was 9990 fluorescence intensity (a.u.); that for “TAACTACTCCCACCGTTTCATATTATAAGTCGTTTGATTTCGGAGTCACCTAGTGCAG” was 11100 fluorescence intensity (a.u.); that for “TTCATTTCTATTGTTATTTCTATTGTTTTGTTATTTTCATCGGAGTCACCTAGTGCAG” was 10600 fluorescence intensity (a.u.). The value for “GAATCTTACACGTGGTCTCCCACACATACACTCATCGCAACGGAGTCACCTAGTGCAG” was 8170 fluorescence intensity (a.u.); that for “TATATCCACCTTTAATTTCTTCCCTAATATATTCATATCACGGAGTCACCTAGTGCAG” was 8192 fluorescence intensity (a.u.). Consider “AGGGTTTGTCTCGTCCTCACTCCTCACTCTGCTTCCTTGTCGGAGTCACCTAGTGCAG”, for which the binding signal was 10500 fluorescence intensity (a.u.).

On to “GCGGTCGTCTACCTCGCTCCGCTGCGGCGTTCTCTCCCCGCGGAGTCACCTAGTGCAG”, for which the binding signal is 8720 fluorescence intensity (a.u.).

Turning to “TTGGCTCCTATCTTTCATTTTTTCATCCACAGGATCTTGCCGGAGTCACCTAGTGCAG”, the binding signal was 8930 fluorescence intensity (a.u.). The value for “GTTTGTTGTAGCTTTCTGTATATCACCATAGTACTTTGTACGGAGTCACCTAGTGCAG” was 8100 fluorescence intensity (a.u.).

Turning to “CCGTGTGCGCATTTTGCGCTTTGGTCCTTGCCGCCCTTACCGGAGTCACCTAGTGCAG”, the binding signal is 10200 fluorescence intensity (a.u.). The value for “AAAAATCCCTGCGCGTTTCTCATATGCTTTATATACAACACGGAGTCACCTAGTGCAG” was 9300 fluorescence intensity (a.u.); that for “TAGTGTTAAGTCAAATGATCACCTCTTTTTTTCTGTTTGACGGAGTCACCTAGTGCAG” was 8610 fluorescence intensity (a.u.). The value for “ACCCTGATTAACGATTTCCATCAACATCACAACGCCACCACGGAGTCACCTAGTGCAG” was 9300 fluorescence intensity (a.u.); that for “ATAGGAGGGGTCATATTAGTAGGGTTTTTTTTGGACGGAGCGGAGTCACCTAGTGCAG” was 8260 fluorescence intensity (a.u.); that for “CATCTTTTTGTTTAACATTTCCATTACATTATACTATATGCGGAGTCACCTAGTGCAG” was 8870 fluorescence intensity (a.u.).

Consider “TCTTCTCCAGTGAGCCGTGCCCGTCTGCTCCTCCTCCAATCGGAGTCACCTAGTGCAG”, for which the binding signal is 11200 fluorescence intensity (a.u.). Consider “CTCTGAATGACTTCCTAACAAATTCTCTTTTTACCTCTGCCGGAGTCACCTAGTGCAG”, for which the binding signal was 8380 fluorescence intensity (a.u.). On to “GTATCATACCATCCGAACTAGATACTGTTCTCATTTGCCACGGAGTCACCTAGTGCAG”, for which the binding signal is 10500 fluorescence intensity (a.u.). The value for “CAAGCACTGGATTGTTATTTCCCTTGTGTGCGTTATATATCGGAGTCACCTAGTGCAG” was 9150 fluorescence intensity (a.u.). The value for “ATCTGTGTTTCTCTGTCAATTTTTTCATGTGATCCAAACACGGAGTCACCTAGTGCAG” was 8130 fluorescence intensity (a.u.); that for “TCTCCACGCTGCACCGTGCATCTATGCCTAGTTTGCTTACCGGAGTCACCTAGTGCAG” was 8680 fluorescence intensity (a.u.); that for “CCGTCTGCCACGTCATTTTCGCCGCCCTCTGGGAGGGCGACGGAGTCACCTAGTGCAG” was 8280 fluorescence intensity (a.u.). As for “GGGTGATTTGTTGTAATGACGCGTGTGGTGGGGTGTGTGGCGGAGTCACCTAGTGCAG”, the binding signal is 11200 fluorescence intensity (a.u.). The value for “TCTCGCACGCTGCTTGCGGCGTTAGGCCGGCCCATATAACCGGAGTCACCTAGTGCAG” was 8100 fluorescence intensity (a.u.). The value for “TACTACTACTACTGCTACTACTGGGTTCTGGAGTGATTACCGGAGTCACCTAGTGCAG” was 10800 fluorescence intensity (a.u.); that for “ACTCACAAGCCTTGACATGGTCTTGTACTCACTTTTTTTCCGGAGTCACCTAGTGCAG” was 9240 fluorescence intensity (a.u.); that for “ATGCAACTAACCCTTATCAGCATCATGTGCCTTTATCTCTCGGAGTCACCTAGTGCAG” was 8540 fluorescence intensity (a.u.). The value for “GCTTCGATTCAGTTTCAACCCAAACAGAAACCCCAAAAACCGGAGTCACCTAGTGCAG” was 8060 fluorescence intensity (a.u.); that for “GTTGTCCTGTGCTTTTGTAATTCTTTGTTGTACATTTTTACGGAGTCACCTAGTGCAG” was 16300 fluorescence intensity (a.u.); that for “CACTTCATTCATTCTTGTCCACCCGTTGCCCAGCCCAGACCGGAGTCACCTAGTGCAG” was 8580 fluorescence intensity (a.u.). With “TGGCTTTGACTCTTAGGGTTTGTACGCTACCTAGCTAGCTCGGAGTCACCTAGTGCAG”, the binding signal was 9660 fluorescence intensity (a.u.). For the sequence “TTTTCTCAATTATTTCAGGGTCACATAGTACCTCTCCATTCGGAGTCACCTAGTGCAG”, the binding signal is 8580 fluorescence intensity (a.u.).

Regarding “CTATCGCCCATCATTTCCGTCGCCGACCTCAGCTGCTGCGCGGAGTCACCTAGTGCAG”, the binding signal was 9020 fluorescence intensity (a.u.). Consider “TTCTGCTAAAATTTGTACTGTTTGTTCCTTTGAGAAATCCCGGAGTCACCTAGTGCAG”, for which the binding signal was 11100 fluorescence intensity (a.u.). The value for “CACTTTCTCCGTTTATTCCTCTCCCTCAACGTTGCCGGCCCGGAGTCACCTAGTGCAG” was 11500 fluorescence intensity (a.u.); that for “GTTTTGTTCCTTTTTTTTCCACTCCACATGTATCAGTTATCGGAGTCACCTAGTGCAG” was 15900 fluorescence intensity (a.u.); that for “GGGGCGGATCTACAGTGTTAGCATCGGTGTCAGATGACACCGGAGTCACCTAGTGCAG” was 9290 fluorescence intensity (a.u.). The value for “CGCCACTTCAGACTCCATCTCAGGCATTGTTCAAGCTCATCGGAGTCACCTAGTGCAG” was 9700 fluorescence intensity (a.u.); that for “CGCTTTTGATGCATAATTCGACTACTTTATGTCCTATCTTCGGAGTCACCTAGTGCAG” was 9910 fluorescence intensity (a.u.). “GATCATACTATTCCCCAATTTCTTTCAGTGGGACACGAACCGGAGTCACCTAGTGCAG”: the binding signal is 10300 fluorescence intensity (a.u.).

Source of the values: article PMC7819943, “Rice protein-binding microarrays: a tool to detect cis-acting elements near promoter regions in rice”.
